Assay: endogenous auxins and metabolites in Eucalyptus grandis cuttings by LC-MS
Format: in vivo
Details: treatment with IBA alone or IBA and compound

| Structure (SMILES) | IBA levels in leaves [ng/gram] | time at which IAA levels in the cutting base peaked [h] | time at which IBA levels peaked [h] |
| --- | --- | --- | --- |
| O=C(O)CCCc1c[nH]c2ccccc12 [IBA, indole-3-butyric acid, reference compound] | 5 | 6 | 6 |
| COC(=O)[C@H](Cc1c[nH]c2ccccc12)NC(=O)COc1ccc(Cl)cc1 [Compound 1t, 4-CPA-L-Trp] | 15 | 24 | 6 |
